Assay [1] concerns the target One-STrEP-tagged NS5A, wild type, from the subgenomic replicon pSGR-JFH1-5A1ST (hepatitis C virus, genotype 2a isolate JFH-1) (UniProt Q99IB8). Briefly: pull-down; lysates of Huh7 replicon cells (untagged, One-STrEP-tagged NS5A wild type or PA2) passed over a STrEP-tactin Sepharose column; eluates Western blotted for NS5A and MLK3; densitometry. For orientation: Replicon systems follow genome replication, usually without infectious particles.

Chains of the proteins cited; added tags and fusions are not shown. Lines headed by an entry give the natural chain unless they say otherwise; changes in a name come on top. Residues count along the entry.
UniProt Q99IB8, residues 1977-2442: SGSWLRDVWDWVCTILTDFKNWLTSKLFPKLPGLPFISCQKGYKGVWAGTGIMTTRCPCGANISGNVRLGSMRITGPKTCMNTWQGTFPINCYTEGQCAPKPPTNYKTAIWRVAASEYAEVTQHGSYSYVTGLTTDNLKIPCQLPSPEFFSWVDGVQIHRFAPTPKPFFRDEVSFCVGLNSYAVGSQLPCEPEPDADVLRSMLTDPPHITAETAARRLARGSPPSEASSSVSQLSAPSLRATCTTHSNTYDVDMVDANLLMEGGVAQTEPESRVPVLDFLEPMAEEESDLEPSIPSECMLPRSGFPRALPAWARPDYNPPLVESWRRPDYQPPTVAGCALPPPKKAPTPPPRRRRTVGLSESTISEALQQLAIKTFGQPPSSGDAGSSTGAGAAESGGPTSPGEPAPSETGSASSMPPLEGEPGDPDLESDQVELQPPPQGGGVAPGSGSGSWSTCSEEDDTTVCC
UniProt Q16584: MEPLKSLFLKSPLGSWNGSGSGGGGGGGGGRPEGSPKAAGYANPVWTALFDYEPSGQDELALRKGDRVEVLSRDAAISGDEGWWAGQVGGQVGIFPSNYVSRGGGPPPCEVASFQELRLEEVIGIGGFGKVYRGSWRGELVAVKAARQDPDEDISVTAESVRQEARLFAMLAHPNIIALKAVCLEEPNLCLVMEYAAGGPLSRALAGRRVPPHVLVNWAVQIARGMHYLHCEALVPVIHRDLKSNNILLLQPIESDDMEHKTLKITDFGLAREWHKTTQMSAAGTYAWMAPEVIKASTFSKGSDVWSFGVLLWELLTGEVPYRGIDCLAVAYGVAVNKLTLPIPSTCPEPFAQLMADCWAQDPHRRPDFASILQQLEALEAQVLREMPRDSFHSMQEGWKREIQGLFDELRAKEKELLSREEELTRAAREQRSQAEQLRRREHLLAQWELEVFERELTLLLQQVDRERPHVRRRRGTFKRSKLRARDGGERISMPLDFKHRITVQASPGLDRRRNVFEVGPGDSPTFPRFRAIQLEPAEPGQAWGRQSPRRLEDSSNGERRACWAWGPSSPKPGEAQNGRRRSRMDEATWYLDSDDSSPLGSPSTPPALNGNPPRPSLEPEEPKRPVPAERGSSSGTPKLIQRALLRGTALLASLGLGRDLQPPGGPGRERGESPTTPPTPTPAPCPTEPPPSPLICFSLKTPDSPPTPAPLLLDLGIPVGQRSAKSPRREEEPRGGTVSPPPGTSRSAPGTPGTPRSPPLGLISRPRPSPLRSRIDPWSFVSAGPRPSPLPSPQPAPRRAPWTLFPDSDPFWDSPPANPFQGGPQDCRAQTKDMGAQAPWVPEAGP

The target in assay [2] is mixed lineage kinase 3 (MLK3), endogenous in Huh7 replicon cells (human (endogenous in Huh7)) (UniProt Q16584). Briefly: co-IP; lysates of Huh7 cells harbouring SGR-JFH1 immunoprecipitated with an anti-MLK3 monoclonal antibody; Western blot for MLK3 and NS5A; control IgG in parallel. (In general: In western blotting, separated proteins are transferred to a membrane and probed.)

The target in assay [3] is FLAG-tagged MLK3, K144E kinase-dead mutant (UniProt Q16584). Briefly: co-IP; Huh7 cells co-transfected with NS5A (wild type or PA2) and FLAG-MLK3 (wild type or K144E); lysis in 0.25% deoxycholic acid, 0.1% Triton X-100, 150 mM NaCl, 100 mM Tris/HCl pH 8.0; anti-FLAG M2 for 1 h at 4 °C, protein G Sepharose; Western blot for NS5A and MLK3.
In assay [4] the target is FLAG-tagged MLK3, wild type (UniProt Q16584). The description is as above.

Results are given in words; binding and its absence hold for the method and conditions named. Binding seen in cells or lysates may run through a third protein. Some binding calls cover weakened binding; strength is not graded here.

With “mixed lineage kinase 3 (MLK3), endogenous in Huh7 replicon cells (from UniProt Q16584 1-847)”, in assay [1], the binding result was “binds”. On to “NS5A expressed from the JFH1-derived subgenomic replicon (SGR-JFH1), untagged (from UniProt Q99IB8 1977-2442)”, for which the binding result in assay [2] is “binds”. On to “NS5A (genotype 2a JFH-1), wild type, expressed from a plasmid (from UniProt Q99IB8 1977-2442)”, for which the binding entry in assay [3] is recorded as “no binding”; in assay [4] it was “binds”.

These data come from publication PMC3750171.
